Data published in paper PMC10279700, “Structural insights into regulation of the PEAK3 pseudokinase scaffold by 14-3-3” (Nature Communications, 2023).
Changes are numbered by the printed parent chain. No constants are given. Whether binding was seen depends on the method and setting. Binding seen in cells or lysates may run through a third protein. For part of these data: Binding calls can cover weak binding; strength is not graded here. Where a sequence is shown, tags or fusion partners need not be part of it.

What was measured:
Assay in all cases: co-IP; FLAG-tagged PEAK3 variants transiently expressed in HEK293; anti-FLAG/protein A beads overnight at 4 °C; endogenous 14-3-3 detected with anti-pan 14-3-3 by Western blot; also after 1 h of 0.1% DMSO or PKD inhibitors CRT0066101 or CID755673 (dose-dependent decrease, not abolished)
[1] = target: T1, FLAG-tagged PEAK3 S69A (human) (UniProt Q6ZS72)
T1 sequence: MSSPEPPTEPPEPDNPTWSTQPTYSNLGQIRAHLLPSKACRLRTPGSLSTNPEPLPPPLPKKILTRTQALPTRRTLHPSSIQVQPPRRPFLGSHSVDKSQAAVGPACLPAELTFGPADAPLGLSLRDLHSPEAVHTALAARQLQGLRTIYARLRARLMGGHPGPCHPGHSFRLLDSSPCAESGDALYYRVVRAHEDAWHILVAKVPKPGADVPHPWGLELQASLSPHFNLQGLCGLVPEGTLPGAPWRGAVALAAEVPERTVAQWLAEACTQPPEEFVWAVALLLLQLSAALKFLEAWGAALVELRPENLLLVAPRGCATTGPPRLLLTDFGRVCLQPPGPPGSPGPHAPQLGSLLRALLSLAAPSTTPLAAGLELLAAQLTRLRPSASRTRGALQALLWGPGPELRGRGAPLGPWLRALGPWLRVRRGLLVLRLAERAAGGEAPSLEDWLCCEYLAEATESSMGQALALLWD

[2] = target: T2, FLAG-tagged PEAK3 S69E (human) (UniProt Q6ZS72)
T2 sequence: T1 sequence with A69E

[3] = target: T3, FLAG-tagged PEAK3 S225A (human) (UniProt Q6ZS72)
T3 sequence: T1 sequence with A69S, S225A

[4] = target: T4, FLAG-tagged PEAK3 W298A (human) (UniProt Q6ZS72)
T4 sequence: T1 sequence with A69S, W298A

[5] = target: T5, FLAG-tagged PEAK3 K293A (human) (UniProt Q6ZS72)
T5 sequence: T1 sequence with A69S, K293A

[6] = target: T6, FLAG-tagged PEAK3 K293A/W298A (human) (UniProt Q6ZS72)
T6 sequence: T1 sequence with A69S, K293A, W298A

- binding [1]: no binding
- binding [2]: no binding
- binding [3]: binds
- binding [4]: binds
- binding [5]: binds
- binding [6]: binds
Substance: endogenous 14-3-3 (human (endogenous in HEK293))
